These are yes or no findings as the source states them, for the method shown. Binding seen in cells or lysates may run through a third protein. Some entries that bind do so weakly or less than the wild type.
Assays:
[1] = target: T1, Cullin-associated NEDD8-dissociated protein 2 (Cand2), mouse, endogenous (mouse (endogenous in neonatal mouse cardiomyocytes)) (UniProt Q6ZQ73); experiment: proximity ligation
T1 sequence: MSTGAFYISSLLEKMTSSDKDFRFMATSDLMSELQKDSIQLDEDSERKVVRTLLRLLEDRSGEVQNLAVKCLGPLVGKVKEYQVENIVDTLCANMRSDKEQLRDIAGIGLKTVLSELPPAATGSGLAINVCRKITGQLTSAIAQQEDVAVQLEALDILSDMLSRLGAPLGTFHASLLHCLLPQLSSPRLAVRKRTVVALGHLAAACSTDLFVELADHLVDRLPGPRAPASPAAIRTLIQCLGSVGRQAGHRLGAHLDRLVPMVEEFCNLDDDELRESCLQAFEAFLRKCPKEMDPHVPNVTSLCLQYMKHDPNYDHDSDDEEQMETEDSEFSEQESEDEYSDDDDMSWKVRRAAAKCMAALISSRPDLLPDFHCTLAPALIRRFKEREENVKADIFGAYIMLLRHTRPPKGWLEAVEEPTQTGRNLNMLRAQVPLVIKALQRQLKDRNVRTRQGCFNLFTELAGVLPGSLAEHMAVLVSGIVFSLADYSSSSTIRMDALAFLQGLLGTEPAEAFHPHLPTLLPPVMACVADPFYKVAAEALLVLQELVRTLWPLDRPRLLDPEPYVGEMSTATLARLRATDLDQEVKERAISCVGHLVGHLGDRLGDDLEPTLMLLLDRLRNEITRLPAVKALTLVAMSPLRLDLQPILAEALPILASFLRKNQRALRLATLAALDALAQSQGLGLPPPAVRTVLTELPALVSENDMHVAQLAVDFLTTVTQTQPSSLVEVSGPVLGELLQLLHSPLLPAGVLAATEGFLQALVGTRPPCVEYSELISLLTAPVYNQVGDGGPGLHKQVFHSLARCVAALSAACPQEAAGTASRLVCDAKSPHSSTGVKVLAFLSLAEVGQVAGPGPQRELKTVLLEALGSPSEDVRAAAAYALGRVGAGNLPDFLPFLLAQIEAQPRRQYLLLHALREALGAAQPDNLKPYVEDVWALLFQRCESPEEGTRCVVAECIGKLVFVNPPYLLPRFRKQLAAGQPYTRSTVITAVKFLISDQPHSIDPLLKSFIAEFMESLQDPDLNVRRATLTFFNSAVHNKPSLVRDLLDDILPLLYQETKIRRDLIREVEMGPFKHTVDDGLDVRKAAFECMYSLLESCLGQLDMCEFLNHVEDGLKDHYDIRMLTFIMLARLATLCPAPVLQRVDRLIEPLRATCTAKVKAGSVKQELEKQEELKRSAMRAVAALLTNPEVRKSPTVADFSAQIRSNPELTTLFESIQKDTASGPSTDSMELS

Amino acid sequences for entries named in this document (tags omitted).
UniProt Q9WTX6: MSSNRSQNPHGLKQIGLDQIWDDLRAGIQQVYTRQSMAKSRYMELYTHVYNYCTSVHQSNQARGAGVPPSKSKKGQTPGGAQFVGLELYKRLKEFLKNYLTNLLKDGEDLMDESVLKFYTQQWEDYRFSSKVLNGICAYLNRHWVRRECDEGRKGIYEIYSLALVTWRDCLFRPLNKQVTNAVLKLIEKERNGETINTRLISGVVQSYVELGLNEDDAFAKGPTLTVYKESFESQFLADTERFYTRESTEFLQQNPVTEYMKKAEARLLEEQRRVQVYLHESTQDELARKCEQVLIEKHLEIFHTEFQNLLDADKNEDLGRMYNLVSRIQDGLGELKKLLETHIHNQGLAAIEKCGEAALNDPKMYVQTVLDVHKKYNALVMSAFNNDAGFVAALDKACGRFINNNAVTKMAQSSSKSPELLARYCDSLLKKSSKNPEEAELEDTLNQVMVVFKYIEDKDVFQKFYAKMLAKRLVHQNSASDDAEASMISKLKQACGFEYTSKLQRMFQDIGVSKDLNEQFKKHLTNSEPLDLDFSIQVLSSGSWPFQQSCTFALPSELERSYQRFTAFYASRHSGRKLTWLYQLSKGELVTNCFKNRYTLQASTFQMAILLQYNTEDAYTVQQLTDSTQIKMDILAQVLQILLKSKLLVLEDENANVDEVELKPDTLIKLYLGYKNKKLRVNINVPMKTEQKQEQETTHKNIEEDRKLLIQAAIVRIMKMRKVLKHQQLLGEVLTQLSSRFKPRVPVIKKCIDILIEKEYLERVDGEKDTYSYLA
UniProt Q62833: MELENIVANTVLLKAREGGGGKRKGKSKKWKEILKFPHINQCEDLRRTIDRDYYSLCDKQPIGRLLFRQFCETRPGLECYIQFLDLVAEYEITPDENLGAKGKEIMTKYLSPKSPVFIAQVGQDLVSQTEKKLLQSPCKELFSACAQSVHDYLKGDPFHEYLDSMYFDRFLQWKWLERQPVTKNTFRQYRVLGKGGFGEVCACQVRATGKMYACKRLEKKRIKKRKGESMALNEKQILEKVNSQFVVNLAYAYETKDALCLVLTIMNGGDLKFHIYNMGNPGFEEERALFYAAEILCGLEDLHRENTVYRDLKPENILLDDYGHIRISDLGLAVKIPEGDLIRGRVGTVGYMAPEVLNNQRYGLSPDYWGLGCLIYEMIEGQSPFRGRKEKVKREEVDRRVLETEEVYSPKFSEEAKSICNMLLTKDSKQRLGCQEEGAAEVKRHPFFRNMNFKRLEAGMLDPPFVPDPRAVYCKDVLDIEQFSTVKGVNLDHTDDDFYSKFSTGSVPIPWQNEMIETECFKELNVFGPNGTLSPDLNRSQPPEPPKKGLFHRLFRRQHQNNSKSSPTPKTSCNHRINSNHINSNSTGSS

[2] = target: T2, Cullin-associated NEDD8-dissociated protein 2 (Cand2), rat, endogenous (rat (endogenous in neonatal rat ventricular cardiomyocytes)) (UniProt Q9R0L4); experiment: co-IP
T2 sequence: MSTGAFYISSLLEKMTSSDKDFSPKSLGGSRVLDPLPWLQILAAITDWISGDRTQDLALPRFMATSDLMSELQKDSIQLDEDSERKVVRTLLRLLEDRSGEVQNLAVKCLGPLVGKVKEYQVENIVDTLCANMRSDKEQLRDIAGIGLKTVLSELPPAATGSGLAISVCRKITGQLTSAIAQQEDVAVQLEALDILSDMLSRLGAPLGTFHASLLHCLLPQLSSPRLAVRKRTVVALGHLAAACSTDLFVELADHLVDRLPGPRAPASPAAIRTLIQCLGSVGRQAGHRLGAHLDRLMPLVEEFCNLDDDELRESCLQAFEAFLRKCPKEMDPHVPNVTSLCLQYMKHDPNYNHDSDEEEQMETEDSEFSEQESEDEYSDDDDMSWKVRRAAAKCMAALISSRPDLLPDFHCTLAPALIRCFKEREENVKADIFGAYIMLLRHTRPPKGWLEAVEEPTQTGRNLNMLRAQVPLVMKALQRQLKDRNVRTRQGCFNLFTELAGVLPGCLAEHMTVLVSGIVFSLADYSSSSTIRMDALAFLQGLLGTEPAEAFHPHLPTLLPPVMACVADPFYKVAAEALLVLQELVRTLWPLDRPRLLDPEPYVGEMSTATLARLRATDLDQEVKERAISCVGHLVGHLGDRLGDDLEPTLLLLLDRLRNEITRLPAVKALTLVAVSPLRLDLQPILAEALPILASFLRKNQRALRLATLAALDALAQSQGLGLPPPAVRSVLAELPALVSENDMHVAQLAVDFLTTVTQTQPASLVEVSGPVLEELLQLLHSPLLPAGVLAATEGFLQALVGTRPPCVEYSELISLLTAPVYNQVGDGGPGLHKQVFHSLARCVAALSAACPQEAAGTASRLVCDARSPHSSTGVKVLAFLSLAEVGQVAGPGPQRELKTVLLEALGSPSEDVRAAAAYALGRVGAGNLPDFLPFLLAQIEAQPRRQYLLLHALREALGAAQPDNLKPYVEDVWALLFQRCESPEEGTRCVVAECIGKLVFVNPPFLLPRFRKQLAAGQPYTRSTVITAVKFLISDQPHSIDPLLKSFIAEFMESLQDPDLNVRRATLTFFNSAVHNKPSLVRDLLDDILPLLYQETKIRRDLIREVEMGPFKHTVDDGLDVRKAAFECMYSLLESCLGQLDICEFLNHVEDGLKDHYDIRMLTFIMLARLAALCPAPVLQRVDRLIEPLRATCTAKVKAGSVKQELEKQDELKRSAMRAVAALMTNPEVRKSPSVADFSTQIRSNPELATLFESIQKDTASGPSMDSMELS

[3] = target: T2, Cullin-associated NEDD8-dissociated protein 2 (Cand2), rat, endogenous (rat (endogenous in neonatal rat ventricular cardiomyocytes)); experiment: proximity ligation

binding [1] | binding [2] | binding [3] | Substance
binds |  |  | Cullin1, mouse, endogenous (from UniProt Q9WTX6 1-776)
 | binds | binds | G-protein coupled receptor kinase 5 (Grk5), rat, endogenous (from UniProt Q62833 1-590) (enzyme)

From publication doi:10.1101/2020.11.29.403196
